Data published in patent publication US20160355503A1, “NITROGEN HEXACYCLE COMPOUNDS AS INHIBITORS OF p97 COMPLEX” (Cleave Biosciences, Inc., priority 2015, published 2016).

Test system: Caco-2 cells

**Q.** Which “Peff A B, Range” value (pH 7.4 Caco-2, A to B) does the source give for `CC(C)NCC(O)COc1ccc(CC(N)=O)cc1` (centres unmarked) [Atenolol] here?
**A.** 0.69-1.80 ×E−6 cm/sec

**Q.** What about the “Peff B A, Range” value (pH 7.4 Caco-2, B to A) of the same compound?
**A.** 1.69-2.68 ×E−6 cm/sec
